Assays:
[1] = tested on: BDL cirrhotic rats; assay: Bile duct ligated rat model, IP ornithine, phenylbutyrate, OP; type: in vivo, Sprague-Dawley rats
Procedure: Male Sprague-Dawley rats (200-250 g) were used for this procedure. Following anaesthetisation, a mid-line laparotamy was performed, the bile duct was exposed, triply ligated with 4.0 silk suture, and severed between the second and third ligature. The wound was closed in layers with absorbable suture, and the animal allowed to recover in a quiet room before being returned to the animal storage facility. Animals were kept at a constant temperature (20° C.) in a 12 hour light/dark cycle with access to water and standard rodent chow ad libitum. […] At six weeks, under anaesthesia a right carotid arterial catheter was inserted and used to collect repeated blood samples. Following this procedure a baseline sample was collected prior to administration of the study formulations by IP injection. […] Blood samples were collected into pre-cooled […] tubes and stored on ice prior to processing. Plasma was collected following centrifugation (3,000 rpm, 10 mins) and stored at -80° C. prior to analyses. Ammonia, glucose, lactate and urea were measured using a COBRAS Mira S according to manufacturers instructions. Amino acids were quantified by HPLC with fluorescence detection.

[2] = tested on: devascularized pig model of acute liver failure; assay: Devascularized pig model of acute liver failure; type: in vivo, pigs; conditions: frontal cortex at end of experiment, % control (FIG. 30)

In the case of `NCCC[C@H](N)C(=O)O` [ornithine], the plasma ornithine concentration ([1]; 1 hour following the IP injection (FIG. 20)) is reported as “markedly increased”, the plasma ornithine concentration ([1]; 3 hours (FIG. 20)) is reported as “subsequently reduced” and the “arterial plasma ammonia levels” value ([1]; over three hours after IP injection, ornithine 0.22 g/Kg, phenylbutyrate 0.3 g/Kg (FIG. 19)) is reported as “slight decrease”. For the same molecule, the brain water ([2]; listed as omithine alone) was “increase” and the brain water ([2]; listed as ornithine alone) was “considerable increase”.
